# Source: the supplement of paper PMC10849652
# Protein sequences, listed by entry. Tags and fused reporters are not part of them. Lines headed by an entry give the natural chain unless they say otherwise; changes in a name come on top.
# UniProt P03886, whole entry, looked up: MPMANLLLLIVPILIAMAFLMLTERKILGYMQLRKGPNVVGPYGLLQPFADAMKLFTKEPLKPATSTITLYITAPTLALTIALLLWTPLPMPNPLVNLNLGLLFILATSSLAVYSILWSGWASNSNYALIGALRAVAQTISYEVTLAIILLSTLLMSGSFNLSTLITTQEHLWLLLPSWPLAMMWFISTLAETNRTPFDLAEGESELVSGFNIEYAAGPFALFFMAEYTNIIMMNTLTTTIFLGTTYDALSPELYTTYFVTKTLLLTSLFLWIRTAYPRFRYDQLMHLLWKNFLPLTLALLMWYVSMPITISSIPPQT
# UniProt G3V1V0: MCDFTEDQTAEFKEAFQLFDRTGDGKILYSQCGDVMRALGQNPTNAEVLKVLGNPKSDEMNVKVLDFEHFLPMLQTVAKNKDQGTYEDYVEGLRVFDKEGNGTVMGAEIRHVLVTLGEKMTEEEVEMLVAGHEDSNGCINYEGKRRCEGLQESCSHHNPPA
# MTHFD1, A0A384N5Y3, UniProt A0A384N5Y3, whole entry, looked up: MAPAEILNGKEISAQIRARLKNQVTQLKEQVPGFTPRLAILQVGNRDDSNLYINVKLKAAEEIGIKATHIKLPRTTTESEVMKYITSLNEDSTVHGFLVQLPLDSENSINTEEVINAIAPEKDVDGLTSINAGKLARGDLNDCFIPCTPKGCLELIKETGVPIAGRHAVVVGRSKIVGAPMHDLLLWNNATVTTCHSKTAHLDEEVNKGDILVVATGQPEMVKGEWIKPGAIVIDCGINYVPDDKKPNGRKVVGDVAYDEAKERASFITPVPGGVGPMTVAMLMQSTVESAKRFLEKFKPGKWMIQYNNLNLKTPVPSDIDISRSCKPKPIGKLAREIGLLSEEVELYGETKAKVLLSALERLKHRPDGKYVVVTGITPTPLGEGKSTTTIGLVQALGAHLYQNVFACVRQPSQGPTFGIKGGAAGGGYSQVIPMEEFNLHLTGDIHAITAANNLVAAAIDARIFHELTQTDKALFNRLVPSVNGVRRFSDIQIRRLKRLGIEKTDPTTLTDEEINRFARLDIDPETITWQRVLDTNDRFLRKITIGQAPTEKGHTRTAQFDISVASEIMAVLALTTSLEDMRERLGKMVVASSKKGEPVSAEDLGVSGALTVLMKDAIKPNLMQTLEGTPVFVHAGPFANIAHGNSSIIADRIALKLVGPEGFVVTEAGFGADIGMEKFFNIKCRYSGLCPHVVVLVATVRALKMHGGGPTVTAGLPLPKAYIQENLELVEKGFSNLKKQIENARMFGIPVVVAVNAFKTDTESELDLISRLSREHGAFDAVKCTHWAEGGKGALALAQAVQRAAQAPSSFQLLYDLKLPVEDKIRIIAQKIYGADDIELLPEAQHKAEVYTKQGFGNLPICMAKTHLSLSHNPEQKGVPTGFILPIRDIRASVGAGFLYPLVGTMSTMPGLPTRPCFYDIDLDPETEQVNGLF
# UniProt P11586, whole entry, looked up: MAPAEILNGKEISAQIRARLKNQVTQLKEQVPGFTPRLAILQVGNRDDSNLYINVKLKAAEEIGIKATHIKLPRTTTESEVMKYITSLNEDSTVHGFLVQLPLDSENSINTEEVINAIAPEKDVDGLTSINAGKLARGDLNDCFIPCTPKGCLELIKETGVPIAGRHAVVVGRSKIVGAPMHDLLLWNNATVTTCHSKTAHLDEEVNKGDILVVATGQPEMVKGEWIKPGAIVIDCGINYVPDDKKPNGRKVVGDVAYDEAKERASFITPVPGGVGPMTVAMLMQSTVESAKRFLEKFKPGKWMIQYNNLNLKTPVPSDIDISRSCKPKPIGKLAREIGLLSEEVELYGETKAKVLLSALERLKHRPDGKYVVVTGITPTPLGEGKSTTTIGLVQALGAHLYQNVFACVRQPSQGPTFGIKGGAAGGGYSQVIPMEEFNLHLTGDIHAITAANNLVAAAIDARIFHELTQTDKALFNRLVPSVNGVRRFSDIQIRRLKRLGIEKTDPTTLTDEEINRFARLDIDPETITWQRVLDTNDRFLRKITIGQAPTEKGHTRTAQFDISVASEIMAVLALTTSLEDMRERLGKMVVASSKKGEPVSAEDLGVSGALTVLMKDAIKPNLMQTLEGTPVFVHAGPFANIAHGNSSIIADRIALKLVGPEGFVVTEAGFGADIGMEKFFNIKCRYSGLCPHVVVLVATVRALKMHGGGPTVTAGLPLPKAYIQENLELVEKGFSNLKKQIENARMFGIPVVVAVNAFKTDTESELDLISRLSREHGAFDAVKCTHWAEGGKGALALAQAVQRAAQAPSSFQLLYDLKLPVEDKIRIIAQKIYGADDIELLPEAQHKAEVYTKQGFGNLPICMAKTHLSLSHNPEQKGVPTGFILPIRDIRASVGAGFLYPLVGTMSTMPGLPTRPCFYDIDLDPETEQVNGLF
# UniProt Q15746, whole entry, looked up: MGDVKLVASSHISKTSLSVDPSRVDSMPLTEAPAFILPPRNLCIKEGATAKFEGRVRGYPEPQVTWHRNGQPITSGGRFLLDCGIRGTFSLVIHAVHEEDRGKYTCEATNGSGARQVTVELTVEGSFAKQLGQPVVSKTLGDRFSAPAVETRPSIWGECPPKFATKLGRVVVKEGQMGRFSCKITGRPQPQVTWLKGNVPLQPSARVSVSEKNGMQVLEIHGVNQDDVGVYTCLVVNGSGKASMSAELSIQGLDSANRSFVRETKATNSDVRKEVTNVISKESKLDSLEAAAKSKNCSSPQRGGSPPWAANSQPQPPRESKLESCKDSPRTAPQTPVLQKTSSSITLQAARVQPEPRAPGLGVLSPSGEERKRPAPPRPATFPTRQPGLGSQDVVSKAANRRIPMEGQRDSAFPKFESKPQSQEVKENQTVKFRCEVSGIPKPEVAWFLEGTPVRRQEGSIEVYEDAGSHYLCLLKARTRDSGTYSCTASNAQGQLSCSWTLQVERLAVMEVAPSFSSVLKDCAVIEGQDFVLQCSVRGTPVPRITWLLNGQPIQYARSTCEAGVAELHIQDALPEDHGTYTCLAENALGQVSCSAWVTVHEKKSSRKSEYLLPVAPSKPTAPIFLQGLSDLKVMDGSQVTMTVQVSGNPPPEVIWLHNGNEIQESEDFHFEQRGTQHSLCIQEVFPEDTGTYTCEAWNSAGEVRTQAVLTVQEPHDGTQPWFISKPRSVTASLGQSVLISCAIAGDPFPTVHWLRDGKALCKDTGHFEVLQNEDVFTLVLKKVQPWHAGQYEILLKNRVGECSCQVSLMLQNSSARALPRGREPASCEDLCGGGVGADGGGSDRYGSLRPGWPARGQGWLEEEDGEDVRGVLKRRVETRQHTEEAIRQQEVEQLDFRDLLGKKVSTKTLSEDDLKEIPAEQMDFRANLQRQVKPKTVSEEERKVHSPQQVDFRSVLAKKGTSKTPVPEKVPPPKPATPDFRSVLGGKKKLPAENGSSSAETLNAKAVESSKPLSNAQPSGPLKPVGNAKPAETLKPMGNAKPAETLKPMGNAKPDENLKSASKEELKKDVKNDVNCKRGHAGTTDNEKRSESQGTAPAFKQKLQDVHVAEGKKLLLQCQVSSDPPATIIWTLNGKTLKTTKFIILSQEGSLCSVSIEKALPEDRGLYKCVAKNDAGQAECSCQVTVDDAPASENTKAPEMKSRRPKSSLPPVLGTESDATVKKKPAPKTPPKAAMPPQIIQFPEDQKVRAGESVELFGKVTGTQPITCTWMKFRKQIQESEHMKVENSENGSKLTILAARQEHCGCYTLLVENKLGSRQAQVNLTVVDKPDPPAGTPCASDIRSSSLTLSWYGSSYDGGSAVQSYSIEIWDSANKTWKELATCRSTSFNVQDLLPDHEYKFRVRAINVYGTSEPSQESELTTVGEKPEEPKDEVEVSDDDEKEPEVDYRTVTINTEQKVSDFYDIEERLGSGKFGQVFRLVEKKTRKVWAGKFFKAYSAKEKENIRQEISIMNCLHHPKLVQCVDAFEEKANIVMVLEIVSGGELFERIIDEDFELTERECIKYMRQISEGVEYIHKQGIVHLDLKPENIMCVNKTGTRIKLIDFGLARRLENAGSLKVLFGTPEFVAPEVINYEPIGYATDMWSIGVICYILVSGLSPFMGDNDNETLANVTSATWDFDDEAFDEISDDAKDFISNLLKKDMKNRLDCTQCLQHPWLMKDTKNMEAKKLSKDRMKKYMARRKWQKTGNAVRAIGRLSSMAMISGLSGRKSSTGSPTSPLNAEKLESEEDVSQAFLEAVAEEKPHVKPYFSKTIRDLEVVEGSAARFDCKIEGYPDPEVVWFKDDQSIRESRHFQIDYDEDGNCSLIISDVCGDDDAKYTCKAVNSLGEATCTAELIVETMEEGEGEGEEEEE
# UniProt P13640: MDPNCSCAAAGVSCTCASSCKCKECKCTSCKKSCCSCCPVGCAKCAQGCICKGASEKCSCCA
# UniProt Q96DP5: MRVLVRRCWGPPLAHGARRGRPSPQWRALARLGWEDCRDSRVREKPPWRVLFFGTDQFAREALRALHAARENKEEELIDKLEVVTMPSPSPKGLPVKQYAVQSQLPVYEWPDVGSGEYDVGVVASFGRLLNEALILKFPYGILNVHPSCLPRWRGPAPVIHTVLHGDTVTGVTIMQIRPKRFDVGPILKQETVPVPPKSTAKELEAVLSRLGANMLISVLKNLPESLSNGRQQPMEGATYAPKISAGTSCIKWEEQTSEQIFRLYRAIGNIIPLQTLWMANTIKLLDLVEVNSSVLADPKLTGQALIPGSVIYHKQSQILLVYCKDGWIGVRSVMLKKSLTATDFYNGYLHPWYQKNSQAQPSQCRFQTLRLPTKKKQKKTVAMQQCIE
# UniProt Q9Y2Z2: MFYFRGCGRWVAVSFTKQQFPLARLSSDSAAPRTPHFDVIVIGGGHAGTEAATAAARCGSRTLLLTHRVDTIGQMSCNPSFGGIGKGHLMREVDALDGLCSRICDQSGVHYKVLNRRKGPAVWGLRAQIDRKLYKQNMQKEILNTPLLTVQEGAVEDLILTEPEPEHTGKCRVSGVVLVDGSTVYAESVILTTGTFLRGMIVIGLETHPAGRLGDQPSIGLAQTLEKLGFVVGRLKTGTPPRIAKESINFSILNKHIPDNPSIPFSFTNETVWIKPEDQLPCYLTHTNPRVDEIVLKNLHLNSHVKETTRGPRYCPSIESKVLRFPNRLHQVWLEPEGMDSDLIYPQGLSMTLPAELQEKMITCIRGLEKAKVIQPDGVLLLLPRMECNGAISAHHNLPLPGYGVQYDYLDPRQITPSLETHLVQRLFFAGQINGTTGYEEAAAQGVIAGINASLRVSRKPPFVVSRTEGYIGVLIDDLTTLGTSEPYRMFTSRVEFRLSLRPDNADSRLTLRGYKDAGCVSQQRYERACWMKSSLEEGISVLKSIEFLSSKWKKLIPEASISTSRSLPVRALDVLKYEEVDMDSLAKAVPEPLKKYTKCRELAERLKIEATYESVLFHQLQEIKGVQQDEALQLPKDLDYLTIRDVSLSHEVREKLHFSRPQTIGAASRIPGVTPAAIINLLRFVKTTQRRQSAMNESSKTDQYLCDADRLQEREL
# UniProt Q2M296: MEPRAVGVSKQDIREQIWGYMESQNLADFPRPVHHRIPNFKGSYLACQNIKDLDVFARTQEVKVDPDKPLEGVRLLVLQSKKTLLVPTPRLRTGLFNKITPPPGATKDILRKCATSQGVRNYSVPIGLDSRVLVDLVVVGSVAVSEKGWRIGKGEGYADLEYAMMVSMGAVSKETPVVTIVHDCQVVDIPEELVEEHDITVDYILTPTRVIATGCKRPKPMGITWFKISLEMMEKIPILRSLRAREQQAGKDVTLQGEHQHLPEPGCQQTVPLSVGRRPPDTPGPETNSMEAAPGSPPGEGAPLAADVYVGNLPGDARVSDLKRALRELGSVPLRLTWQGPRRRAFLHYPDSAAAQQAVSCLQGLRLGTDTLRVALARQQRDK
# UniProt Q99836, whole entry, looked up: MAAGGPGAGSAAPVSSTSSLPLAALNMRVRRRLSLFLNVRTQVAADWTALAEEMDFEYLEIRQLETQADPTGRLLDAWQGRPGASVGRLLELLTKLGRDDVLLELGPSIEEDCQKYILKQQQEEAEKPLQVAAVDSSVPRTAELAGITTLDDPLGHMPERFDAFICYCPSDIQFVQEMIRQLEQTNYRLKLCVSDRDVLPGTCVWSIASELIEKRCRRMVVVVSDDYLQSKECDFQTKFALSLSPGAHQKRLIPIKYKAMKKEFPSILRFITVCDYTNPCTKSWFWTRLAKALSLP
# UniProt Q9H019: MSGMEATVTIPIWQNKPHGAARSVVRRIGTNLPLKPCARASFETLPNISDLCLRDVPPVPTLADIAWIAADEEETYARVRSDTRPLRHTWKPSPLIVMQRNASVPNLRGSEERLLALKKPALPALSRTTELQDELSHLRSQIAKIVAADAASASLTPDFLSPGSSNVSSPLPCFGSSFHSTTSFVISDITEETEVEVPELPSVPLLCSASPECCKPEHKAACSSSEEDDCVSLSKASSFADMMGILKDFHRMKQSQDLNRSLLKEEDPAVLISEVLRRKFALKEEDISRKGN
# This is one part of the list.
# Compound: CC[C@@H]1C(=O)N(C)c2cnc(Nc3ccc(C(=O)NC4CCN(C)CC4)cc3OC)nc2N1C1CCCC1
# Assay: log2 fold change, soluble protein after heating vs DMSO (PISA); higher = thermal stabilisation; K562 cells, 10 uM, 30 min; active = over 0.2 and 3.5 SD of the protein, either way, in both replicates (recomputed)
# How it was run: (§1)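 Soluble protein was quantified by TMTpro 16plex LC-MS/MS after channel sums were equalised. It was obtained as the supernatant after 21,000xg for 90 min from pooled aliquots of K562 cells (2×10^6 cells/mL, 10 μM compound, 30 min) heated for 3 min across 48°C-58°C and extracted in PBS with 0.5% NP-40 at 4°C. Thermal stability values are relative to control samples and come from duplicates. They are given as log2 fold changes.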
row,Target,log2 fold change
1,MT-ND1 (UniProt P03886),inactive: -0.157
2,MYL6 (UniProt G3V1V0),inactive: -0.05
3,MRPS15 (UniProt P82914),inactive: -0.021
4,MTCH2 (UniProt E9PIE4),inactive: -0.025
5,MYO18B isoform 3 (UniProt Q8IUG5),inactive: -0.128
6,MRPS14 (UniProt O60783),inactive: 0.02
7,"MTHFD1, A0A384N5Y3",inactive: -0.152
8,MTHFD1 (UniProt P11586),inactive: -0.074
9,MYLK (UniProt Q15746),inactive: -0.015
10,MRPS18C (UniProt Q9Y3D5),inactive: 0.036
11,MTA3 (UniProt Q9BTC8),inactive: 0.023
12,MTMR14 (UniProt Q8NCE2),inactive: -0.194
13,MT-CO1 (UniProt P00395),inactive: 0.075
14,MT1G (UniProt P13640),inactive: -0.049
15,MRPS16 (UniProt Q9Y3D3),inactive: 0.012
16,MTFMT (UniProt Q96DP5),inactive: -0.45
17,MRPS21 (UniProt P82921),inactive: 0.062
18,MTMR1 (UniProt Q13613),inactive: 0.101
19,MRPS26 (UniProt Q9BYN8),inactive: 0.011
20,MTO1 isoform 6 (UniProt Q9Y2Z2),inactive: -0.008

# Compound: CC[C@@H]1C(=O)N(C)c2cnc(Nc3ccc(C(=O)N[C@H]4CC[C@H](N5CCN(CC6CC6)CC5)CC4)cc3OC)nc2N1C(C)C [volasertib]
# Assay: as above
# How it was run: as §1
row,Target,log2 fold change
1,MT-ND1 (UniProt P03886),inactive: 0.147
2,MTHFSD isoform 3 (UniProt Q2M296),inactive: 0.224
3,MRPS15 (UniProt P82914),inactive: -0.048
4,MTCH2 (UniProt E9PIE4),inactive: 0.023
5,MYH16 (UniProt Q9H6N6),inactive: 0.077
6,MT-CO3 (UniProt P00414),inactive: -0.004
7,MRPS14 (UniProt O60783),inactive: 0.056
8,"MTHFD1, A0A384N5Y3",inactive: -0.011
9,MTHFD1 (UniProt P11586),inactive: -0.002
10,MYLK (UniProt Q15746),inactive: -0.148
11,MRPS18C (UniProt Q9Y3D5),inactive: 0.145
12,MTA3 (UniProt Q9BTC8),inactive: 0.002
13,MTMR10 (UniProt Q9NXD2),inactive: -0.136
14,MTMR14 (UniProt Q8NCE2),active: -0.622
15,MT-CO1 (UniProt P00395),inactive: -0.023
16,MYD88 isoform 6 (UniProt Q99836),inactive: 0.866
17,MT1G (UniProt P13640),inactive: 0.073
18,MTFR1L (UniProt Q9H019),active: -0.586
19,MRPS16 (UniProt Q9Y3D3),inactive: -0.088
20,MTFMT (UniProt Q96DP5),inactive: -0.019
21,MRPS21 (UniProt P82921),inactive: -0.008
22,MTMR1 (UniProt Q13613),inactive: -0.013
23,MRPS26 (UniProt Q9BYN8),inactive: -0.094
24,MTERF4 (UniProt Q7Z6M4),inactive: 0.004
25,MTO1 isoform 6 (UniProt Q9Y2Z2),inactive: -0.205
